Data published in patent EP1030659B1 (Warner-Lambert Company LLC, priority 1997, dated 1999).

The chains behind the UniProt entries cited, without tags or fusion partners.
UniProt P54833, whole entry: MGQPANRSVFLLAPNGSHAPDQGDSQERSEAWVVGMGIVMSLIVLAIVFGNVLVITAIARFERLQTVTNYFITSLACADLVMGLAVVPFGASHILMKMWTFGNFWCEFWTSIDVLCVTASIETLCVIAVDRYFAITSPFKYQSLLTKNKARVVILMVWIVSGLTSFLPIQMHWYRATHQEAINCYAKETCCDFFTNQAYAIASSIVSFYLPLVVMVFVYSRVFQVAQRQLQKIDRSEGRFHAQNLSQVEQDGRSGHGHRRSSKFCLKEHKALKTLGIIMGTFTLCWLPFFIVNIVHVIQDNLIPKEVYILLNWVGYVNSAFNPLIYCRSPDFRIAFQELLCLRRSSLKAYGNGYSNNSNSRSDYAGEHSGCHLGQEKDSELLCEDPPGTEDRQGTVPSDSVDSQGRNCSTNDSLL

Molecular target: T1, β2-receptors (Canis lupus familiaris, UniProt P54833)
T1 construct: The lungs of mongrel dogs were separated from cartilaginous airways and major blood vessels; from tissue; host or cells: mongrel dog lung membranes
Assay: Beta-2 binding, 125iodocyanopindolol (ICYP), canine lung membranes
Set-up: species or system mongrel dogs
Conditions: check for β1 binding with a β1-selective antagonist

## CC(C)NCC(O)COc1ccc(CC(N)=O)cc1 (stereo not shown) [Atenolol, atenolol]
  displacement of ICYP from pulmonary membranes: largely ineffective in displacing ICYP
